According to US20220119509A1 (ARGENX, published 2022):
Results are given in words; binding and its absence hold for the method and conditions named. Some binding calls cover weakened binding; strength is not graded here.

Biological target: T1, cynomolgus monkey C2 (cynomolgus monkey) (UniProt G8F3W0)
T1 sequence: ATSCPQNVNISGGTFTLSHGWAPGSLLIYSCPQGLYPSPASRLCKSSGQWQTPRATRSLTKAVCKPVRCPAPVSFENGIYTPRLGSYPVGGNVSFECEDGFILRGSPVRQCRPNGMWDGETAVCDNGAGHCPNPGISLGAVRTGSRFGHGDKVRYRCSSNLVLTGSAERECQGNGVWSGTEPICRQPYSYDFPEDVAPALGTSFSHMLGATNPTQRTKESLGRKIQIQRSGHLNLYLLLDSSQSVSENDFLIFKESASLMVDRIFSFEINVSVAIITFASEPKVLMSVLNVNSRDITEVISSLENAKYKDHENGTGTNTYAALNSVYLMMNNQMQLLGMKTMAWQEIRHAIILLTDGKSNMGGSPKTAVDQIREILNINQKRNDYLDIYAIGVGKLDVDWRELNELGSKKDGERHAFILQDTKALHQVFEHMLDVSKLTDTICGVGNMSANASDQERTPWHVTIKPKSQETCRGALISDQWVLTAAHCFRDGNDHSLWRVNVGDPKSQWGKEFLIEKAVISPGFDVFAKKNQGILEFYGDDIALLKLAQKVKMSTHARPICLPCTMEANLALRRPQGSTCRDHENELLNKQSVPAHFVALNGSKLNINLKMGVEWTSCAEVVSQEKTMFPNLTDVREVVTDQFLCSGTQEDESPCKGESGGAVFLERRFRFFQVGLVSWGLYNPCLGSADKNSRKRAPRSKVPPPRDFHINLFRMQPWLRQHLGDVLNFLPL
Test: free-C2 sandwich ELISA on pre-dose cynomolgus serum: coat mAb32, detection with biotinylated anti-C2 VH4/VK3; excess BRO-2 competes with the detection antibody

binding: binds
B1: BRO2 (antibody, V domains shown)
VH: EVQLVQSGAEVKKPGASVKVSCKASGYTFTDYNMDWVRQATGQGLEWIGDINPNYESTGYNQKFKGRATMTVNKSISTAYMELSSLRSEDTAVYYCAREDDHDAFAYWGQGTLVTVSS
VL: DNVLTQSPDSLAVSLGERATISCRASKSVRTSGYNYMHWYQQKPGQPPKLLIYLASNLKSGVPDRFSGSGSGTDFTLTISSLQAEDAATYYCQHSRELPYTFGQGTKLEIK
